Results are given in words; binding and its absence hold for the method and conditions named. In cells and extracts the contact can be indirect.

Two molecules from paper PMC2778516 can be followed below.

For assay [1], the target named is T1, Coxsackie and adenovirus receptor (rat, IEC-6 cells) (rat (endogenous in IEC-6)) (UniProt Q9R066).
T1 sequence: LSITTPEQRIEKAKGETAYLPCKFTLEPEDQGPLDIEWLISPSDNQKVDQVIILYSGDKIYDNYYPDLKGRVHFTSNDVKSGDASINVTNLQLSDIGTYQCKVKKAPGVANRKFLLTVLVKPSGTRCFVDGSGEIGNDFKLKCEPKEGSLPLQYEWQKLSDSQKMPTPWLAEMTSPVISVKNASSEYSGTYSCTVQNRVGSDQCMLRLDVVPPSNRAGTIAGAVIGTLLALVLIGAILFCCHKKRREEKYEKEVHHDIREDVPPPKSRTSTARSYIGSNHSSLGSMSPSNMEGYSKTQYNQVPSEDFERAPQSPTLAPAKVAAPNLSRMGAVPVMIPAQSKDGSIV
The experiment in a line: co-IP; Immunoprecipitation Kit Protein G (Roche); initial immunoprecipitation with anti-CAR (H-300) or anti-α-catenin antibody; IgG rabbit as control; western blotting for CAR, α-catenin or ZO-1; DLD1 and IEC-6 cells. A general note: Immunoblotting shows a protein as a band on a membrane.

Assay [2] concerns the target α-catenin (rat, IEC-6 cells) (rat (endogenous in IEC-6)). The description is as above.

Turning to α-catenin (rat, IEC-6 cells), the binding result in assay [1] was “no binding”.

B1: Coxsackie and adenovirus receptor (rat, IEC-6 cells) (receptor, UniProt Q9R066 20-365)
chain: LSITTPEQRIEKAKGETAYLPCKFTLEPEDQGPLDIEWLISPSDNQKVDQVIILYSGDKIYDNYYPDLKGRVHFTSNDVKSGDASINVTNLQLSDIGTYQCKVKKAPGVANRKFLLTVLVKPSGTRCFVDGSGEIGNDFKLKCEPKEGSLPLQYEWQKLSDSQKMPTPWLAEMTSPVISVKNASSEYSGTYSCTVQNRVGSDQCMLRLDVVPPSNRAGTIAGAVIGTLLALVLIGAILFCCHKKRREEKYEKEVHHDIREDVPPPKSRTSTARSYIGSNHSSLGSMSPSNMEGYSKTQYNQVPSEDFERAPQSPTLAPAKVAAPNLSRMGAVPVMIPAQSKDGSIV
For B1, the binding entry in assay [2] was “no binding”.
